In publication PMC5338925:
No constants are given. Whether binding was seen depends on the method and setting. Binding seen in cells or lysates may run through a third protein. A yes stands for co-enrichment or nearness to the bait. Other partners may have been found.

Amino acid sequences for entries named in this document (tags omitted). A change or cut given only in a name is not applied to a line headed by its entry. Chains listed by the source or under a name are the forms on record and can include a tag or linker.
GFP-Nup98^1–920 (P52948, form named): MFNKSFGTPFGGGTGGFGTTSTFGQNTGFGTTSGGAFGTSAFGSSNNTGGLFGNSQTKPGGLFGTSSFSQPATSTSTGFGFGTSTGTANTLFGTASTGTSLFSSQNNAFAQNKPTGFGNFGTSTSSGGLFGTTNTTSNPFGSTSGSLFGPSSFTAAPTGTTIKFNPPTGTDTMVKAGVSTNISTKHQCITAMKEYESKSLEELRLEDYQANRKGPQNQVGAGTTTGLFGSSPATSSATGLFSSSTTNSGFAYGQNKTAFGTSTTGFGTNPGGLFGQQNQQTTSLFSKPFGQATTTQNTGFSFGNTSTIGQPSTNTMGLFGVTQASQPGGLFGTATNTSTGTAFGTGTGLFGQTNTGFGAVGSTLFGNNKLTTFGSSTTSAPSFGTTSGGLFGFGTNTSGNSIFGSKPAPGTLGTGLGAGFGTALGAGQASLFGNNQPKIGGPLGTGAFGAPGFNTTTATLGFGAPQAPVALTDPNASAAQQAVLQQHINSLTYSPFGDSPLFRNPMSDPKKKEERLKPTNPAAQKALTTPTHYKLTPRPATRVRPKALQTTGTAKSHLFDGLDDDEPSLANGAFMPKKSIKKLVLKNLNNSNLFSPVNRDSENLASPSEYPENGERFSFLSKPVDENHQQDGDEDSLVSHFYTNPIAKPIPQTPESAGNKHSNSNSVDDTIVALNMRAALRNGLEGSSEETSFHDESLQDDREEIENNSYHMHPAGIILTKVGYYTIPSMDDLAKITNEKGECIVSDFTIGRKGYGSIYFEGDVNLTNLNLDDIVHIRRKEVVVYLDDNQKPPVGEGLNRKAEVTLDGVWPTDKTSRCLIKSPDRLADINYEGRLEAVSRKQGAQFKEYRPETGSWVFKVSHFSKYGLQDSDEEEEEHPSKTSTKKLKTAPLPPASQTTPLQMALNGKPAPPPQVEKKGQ
UniProt Q92841: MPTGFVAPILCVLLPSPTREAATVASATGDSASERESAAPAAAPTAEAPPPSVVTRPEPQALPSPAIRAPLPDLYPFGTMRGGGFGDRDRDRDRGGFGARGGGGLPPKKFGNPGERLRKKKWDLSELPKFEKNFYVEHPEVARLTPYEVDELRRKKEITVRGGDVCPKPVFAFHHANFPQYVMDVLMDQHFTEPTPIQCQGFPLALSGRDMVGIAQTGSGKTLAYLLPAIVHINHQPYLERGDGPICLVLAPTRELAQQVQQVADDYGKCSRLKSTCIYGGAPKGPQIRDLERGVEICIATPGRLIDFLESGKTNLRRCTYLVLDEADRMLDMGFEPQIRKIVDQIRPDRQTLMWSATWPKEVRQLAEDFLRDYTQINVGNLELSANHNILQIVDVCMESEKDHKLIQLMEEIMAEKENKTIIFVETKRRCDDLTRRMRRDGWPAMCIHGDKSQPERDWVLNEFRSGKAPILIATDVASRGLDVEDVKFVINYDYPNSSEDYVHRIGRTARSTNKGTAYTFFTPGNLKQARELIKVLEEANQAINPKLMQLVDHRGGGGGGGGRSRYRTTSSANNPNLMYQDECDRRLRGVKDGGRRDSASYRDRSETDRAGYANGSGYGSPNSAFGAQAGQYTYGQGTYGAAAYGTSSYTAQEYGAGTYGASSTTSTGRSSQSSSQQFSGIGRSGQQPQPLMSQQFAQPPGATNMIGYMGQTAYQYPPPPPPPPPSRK
UniProt O14980: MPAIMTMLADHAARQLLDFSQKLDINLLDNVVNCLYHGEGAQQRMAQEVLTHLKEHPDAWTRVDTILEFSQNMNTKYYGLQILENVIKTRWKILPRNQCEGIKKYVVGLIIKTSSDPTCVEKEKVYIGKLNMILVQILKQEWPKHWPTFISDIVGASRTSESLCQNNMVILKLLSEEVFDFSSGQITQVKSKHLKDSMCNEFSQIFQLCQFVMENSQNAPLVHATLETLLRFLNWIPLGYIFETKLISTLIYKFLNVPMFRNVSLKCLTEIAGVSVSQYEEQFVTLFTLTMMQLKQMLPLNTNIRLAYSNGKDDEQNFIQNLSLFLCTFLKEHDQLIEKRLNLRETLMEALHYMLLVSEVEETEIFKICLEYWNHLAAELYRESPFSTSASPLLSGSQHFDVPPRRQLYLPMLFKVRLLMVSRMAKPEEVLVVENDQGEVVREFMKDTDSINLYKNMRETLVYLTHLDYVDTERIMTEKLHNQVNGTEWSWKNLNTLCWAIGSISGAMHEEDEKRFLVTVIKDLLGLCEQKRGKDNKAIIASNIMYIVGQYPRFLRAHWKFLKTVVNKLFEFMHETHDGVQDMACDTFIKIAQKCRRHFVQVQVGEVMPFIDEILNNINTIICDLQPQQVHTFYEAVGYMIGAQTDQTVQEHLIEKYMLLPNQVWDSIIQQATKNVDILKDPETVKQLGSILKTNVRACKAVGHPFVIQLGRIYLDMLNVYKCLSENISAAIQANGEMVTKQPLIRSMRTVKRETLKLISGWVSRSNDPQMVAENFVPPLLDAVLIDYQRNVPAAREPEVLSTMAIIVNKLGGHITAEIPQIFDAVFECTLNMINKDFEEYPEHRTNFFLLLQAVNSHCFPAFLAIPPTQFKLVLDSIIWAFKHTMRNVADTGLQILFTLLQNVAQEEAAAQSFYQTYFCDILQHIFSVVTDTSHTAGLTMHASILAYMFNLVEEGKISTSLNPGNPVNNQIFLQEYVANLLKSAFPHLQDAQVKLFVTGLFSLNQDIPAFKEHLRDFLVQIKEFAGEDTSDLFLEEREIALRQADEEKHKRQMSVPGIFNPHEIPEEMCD
UniProt Q9NR30: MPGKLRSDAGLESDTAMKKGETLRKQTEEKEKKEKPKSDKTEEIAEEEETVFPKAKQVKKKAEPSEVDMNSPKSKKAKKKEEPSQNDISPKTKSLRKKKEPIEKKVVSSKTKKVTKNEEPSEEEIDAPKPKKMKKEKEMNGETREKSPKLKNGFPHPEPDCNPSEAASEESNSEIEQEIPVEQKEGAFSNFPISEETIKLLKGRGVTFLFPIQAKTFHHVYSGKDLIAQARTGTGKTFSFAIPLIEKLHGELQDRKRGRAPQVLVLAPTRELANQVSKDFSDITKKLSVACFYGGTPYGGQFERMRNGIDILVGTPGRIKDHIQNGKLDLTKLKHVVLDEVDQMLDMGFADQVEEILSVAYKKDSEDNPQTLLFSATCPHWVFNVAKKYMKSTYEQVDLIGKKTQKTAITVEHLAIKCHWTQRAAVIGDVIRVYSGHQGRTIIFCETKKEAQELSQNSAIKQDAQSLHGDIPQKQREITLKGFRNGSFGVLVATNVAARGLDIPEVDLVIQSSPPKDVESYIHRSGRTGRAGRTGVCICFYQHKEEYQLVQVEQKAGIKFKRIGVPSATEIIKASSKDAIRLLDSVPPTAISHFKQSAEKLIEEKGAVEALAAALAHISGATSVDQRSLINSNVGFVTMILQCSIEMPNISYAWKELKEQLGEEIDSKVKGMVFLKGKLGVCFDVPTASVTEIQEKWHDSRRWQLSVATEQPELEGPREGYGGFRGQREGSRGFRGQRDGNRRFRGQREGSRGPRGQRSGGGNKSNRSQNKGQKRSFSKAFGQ
UniProt O43143: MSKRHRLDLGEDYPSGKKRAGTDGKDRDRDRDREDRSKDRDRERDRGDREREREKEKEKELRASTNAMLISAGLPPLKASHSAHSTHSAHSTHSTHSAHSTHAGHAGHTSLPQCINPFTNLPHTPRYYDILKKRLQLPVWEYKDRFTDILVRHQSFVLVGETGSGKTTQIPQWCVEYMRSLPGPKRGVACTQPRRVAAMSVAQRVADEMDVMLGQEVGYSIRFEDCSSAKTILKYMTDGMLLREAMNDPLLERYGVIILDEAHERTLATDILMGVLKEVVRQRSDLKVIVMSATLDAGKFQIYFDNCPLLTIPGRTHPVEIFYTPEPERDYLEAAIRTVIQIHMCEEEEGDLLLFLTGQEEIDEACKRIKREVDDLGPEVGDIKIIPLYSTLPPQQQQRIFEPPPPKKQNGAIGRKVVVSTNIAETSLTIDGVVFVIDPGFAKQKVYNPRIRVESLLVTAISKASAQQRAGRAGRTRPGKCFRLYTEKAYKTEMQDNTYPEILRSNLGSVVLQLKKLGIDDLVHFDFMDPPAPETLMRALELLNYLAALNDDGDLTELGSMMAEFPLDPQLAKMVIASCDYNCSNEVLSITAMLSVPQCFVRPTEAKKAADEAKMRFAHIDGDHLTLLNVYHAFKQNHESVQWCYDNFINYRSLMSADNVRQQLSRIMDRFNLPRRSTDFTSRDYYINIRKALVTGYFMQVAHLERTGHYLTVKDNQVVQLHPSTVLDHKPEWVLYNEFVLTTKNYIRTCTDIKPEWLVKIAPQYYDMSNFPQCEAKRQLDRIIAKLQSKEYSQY
UniProt P17844: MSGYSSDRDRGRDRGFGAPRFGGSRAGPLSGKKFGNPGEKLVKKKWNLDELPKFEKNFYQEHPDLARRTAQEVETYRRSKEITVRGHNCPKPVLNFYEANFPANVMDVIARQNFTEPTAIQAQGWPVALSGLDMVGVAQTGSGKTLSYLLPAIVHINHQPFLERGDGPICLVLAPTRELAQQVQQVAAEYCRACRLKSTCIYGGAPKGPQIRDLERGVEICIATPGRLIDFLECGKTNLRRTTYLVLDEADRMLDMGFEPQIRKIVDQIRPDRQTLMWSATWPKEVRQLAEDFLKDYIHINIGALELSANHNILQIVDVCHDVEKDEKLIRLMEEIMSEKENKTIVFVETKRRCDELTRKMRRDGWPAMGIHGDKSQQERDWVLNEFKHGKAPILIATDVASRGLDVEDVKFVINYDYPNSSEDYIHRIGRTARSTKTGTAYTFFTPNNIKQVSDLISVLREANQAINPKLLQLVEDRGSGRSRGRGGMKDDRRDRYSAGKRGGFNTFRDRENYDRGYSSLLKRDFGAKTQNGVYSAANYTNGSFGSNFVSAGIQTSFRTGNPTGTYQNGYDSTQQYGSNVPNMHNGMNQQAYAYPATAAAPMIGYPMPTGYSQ

Each substance was assayed against GFP-Nup98^1–920 (human) (UniProt P52948) (assay: affinity purification with mass spectrometry; GFP-Nup98 immunoprecipitated with anti-GFP on Protein G Dynabeads from HEK293T whole cell lysate (NP-40 cell lysis buffer, 250 mM NaCl, pH 7.4); SDS-PAGE, in-gel digestion, LC-MS/MS).

binding, binds:
DDX17 (from UniProt Q92841 1-729)
CRM1 (from UniProt O14980 1-1071)
DDX21 (from UniProt Q9NR30 1-783)
DHX15 (from UniProt O43143 1-795)
DDX5 (from UniProt P17844 1-614)
